# Cleaved PARP in drug-treated melanoma cells

Values as published with doi:10.1371/journal.pone.0140310, rounded.

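The test systems are human melanoma cell lines, treated with two drugs together for 72 h and then stained and imaged. The read-out is the fraction of cleaved-PARP-positive nuclei, in % of that fraction in the DMSO control; 200 means twice the control level of this apoptosis marker. Every drug was used at one fixed concentration, the higher of two screened. The file gives one value for each pair and line, without errors, so small differences may be noise. The marker varies much from line to line, for technical or biological reasons.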
An unselected part of the screen is shown.
An entry leaves out what has no value listed here.

Drug key:
MK-1775: C=CCn1c(=O)c2cnc(Nc3ccc(N4CCN(C)CC4)cc3)nc2n1-c1cccc(C(C)(C)O)n1 at 100 nM
docetaxel: CC(=O)O[C@@]12CO[C@@H]1C[C@H](O)[C@@]1(C)C(=O)[C@H](O)C3=C(C)[C@@H](OC(=O)[C@H](O)[C@@H](NC(=O)OC(C)(C)C)c4ccccc4)C[C@@](O)([C@@H](OC(=O)c4ccccc4)[C@H]21)C3(C)C at 0.5 nM
Src-I1: COc1cc2ncnc(Nc3ccc(Oc4ccccc4)cc3)c2cc1OC at 10000 nM
dorsomorphin: c1cc(-c2cnn3cc(-c4ccc(OCCN5CCCCC5)cc4)cnc23)ccn1 at 2000 nM

With dorsomorphin + docetaxel the screen read MeWo: 720; SK-MEL-5: 262; MEL-HO: 309; WM451Lu: 1150; WM3619: 217; A375: 221; 501mel: 194; UACC-257: 91.0; A101D: 287; WM115: 150; SK-MEL-2: 1240; MZ2-MEL: 370; SK-MEL-28: 748; LB2518-MEL: 346; WM3526: 1230; C32: 146; A2058: 3340; COLO 792: 738; RPMI-7951: 147; G-361: 682; UACC-62: 361; LOX IMVI: 144; COLO 829: 258; WM1716: 131; COLO 800: 128; IST-MEL1: 278; RVH-421: 347; IPC-298: 946; SK-MEL-30: 496.
With Src-I1 + docetaxel the screen read MeWo: 491; SK-MEL-5: 649; MEL-HO: 668; WM451Lu: 1440; WM3619: 143; A375: 121; UACC-257: 311; A101D: 623; WM115: 373; SK-MEL-2: 1270; SK-MEL-28: 537; WM3526: 1150; C32: 129; A2058: 3500; COLO 792: 844; RPMI-7951: 256; G-361: 861; UACC-62: 422; LOX IMVI: 200; COLO 829: 141; WM1716: 1130; COLO 800: 408; IST-MEL1: 312; RVH-421: 118; IPC-298: 669; SK-MEL-30: 663.
With Src-I1 + MK-1775 the screen read MeWo: 95.0; SK-MEL-5: 299; MEL-HO: 34.1; WM451Lu: 55.7; WM3619: 270; A375: 281; 501mel: 176; UACC-257: 19.9; A101D: 169; WM115: 117; SK-MEL-2: 59.3; MZ2-MEL: 36.8; SK-MEL-28: 139; LB2518-MEL: 103; WM3526: 218; WM1745: 205; C32: 223; A2058: 231; COLO 792: 309; RPMI-7951: 135; G-361: 196; UACC-62: 90.8; LOX IMVI: 218; COLO 829: 73.7; WM1716: 134; COLO 800: 62.1; IST-MEL1: 70.3; RVH-421: 285; IPC-298: 77.8; SK-MEL-30: 112.
With MK-1775 + dorsomorphin the screen read MeWo: 151; SK-MEL-5: 408; MEL-HO: 54.1; WM451Lu: 109; WM3619: 199; A375: 222; 501mel: 219; UACC-257: 29.7; A101D: 306; WM115: 304; SK-MEL-2: 31.3; MZ2-MEL: 118; SK-MEL-28: 122; LB2518-MEL: 110; WM3526: 105; WM1745: 188; C32: 145; A2058: 187; COLO 792: 106; RPMI-7951: 124; G-361: 472; UACC-62: 139; LOX IMVI: 108; COLO 829: 161; WM1716: 74.5; COLO 800: 113; IST-MEL1: 62.3; RVH-421: 196; IPC-298: 224; SK-MEL-30: 91.7.
With docetaxel + MK-1775 the screen read MeWo: 849; SK-MEL-5: 171; MEL-HO: 176; WM451Lu: 779; WM3619: 238; UACC-257: 67.7; A101D: 187; WM115: 2270; SK-MEL-2: 1030; MZ2-MEL: 530; SK-MEL-28: 417; LB2518-MEL: 225; WM3526: 1530; WM1745: 263; C32: 132; A2058: 802; COLO 792: 948; RPMI-7951: 436; G-361: 877; UACC-62: 152; LOX IMVI: 189; COLO 829: 231; WM1716: 368; COLO 800: 509; IST-MEL1: 354; RVH-421: 219; IPC-298: 73.4; SK-MEL-30: 597.